What is called MIC is the lowest concentration that inhibits growth of the organism.

SMILES strings stand for the structures. In brackets after ≈: the same amount, converted by molar mass.

For experiment [1], the system named is Candida albicans. The experiment can be described thus: Antifungal activity against Candida albicans SC5314 in presence of 30 mM sodium fluoride after 48 hrs. The format is functional. The settings on record: SC5314, 48 h.
Experiment [2] concerns Candida albicans. Description: Antifungal activity against Candida albicans SC5314 after 48 hrs. The format is functional. Conditions: SC5314, 48 h.

As for `C[C@@H]1[C@H](O)[C@@H](C)/C=C/C=C/C=C/C=C/C=C/C=C/C=C/[C@H](O[C@@H]2O[C@H](C)[C@@H](O)[C@H](N)[C@@H]2O)C[C@@H]2O[C@](O)(C[C@@H](O)C[C@@H](O)[C@H](O)CC[C@@H](O)C[C@@H](O)CC(=O)O[C@H]1C)C[C@H](O)[C@H]2C(=O)O` [AMPHOTERICIN B], the figures for the minimal inhibitory concentration (MIC) in the experiment with Candida albicans [1] and with Candida albicans [2] were 0.05 µM and 0.1 µM (≈ 0.0924 µg/mL), respectively.
